{"source": "PubChem BioAssay AID1508597, Cure First | 2020", "screen": "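Knock-downs altering ovarian cancer cell survival with or without PARP inhibitor rucaparib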 (primary screen)", "system": "human ovarian carcinoma lines grown from tumours: OCI-P5x (papillary serous) and OCI-C5x (clear cell)", "knock-down reagent": "siRNA pool against human genes, 1.25 pmol siRNA per well", "duration": "72 h or 96 h, depending on the cell culture", "treatment": "rucaparib 20 µM (about IC30) or vehicle, present until read-out", "detection": "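Luminescent ATP-based viability assay read 72 or 96 h after transfection, depending on culture, given as normalised percent viability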", "reading the numbers": "viability, normalised: higher = more viable cells remaining", "hit rule": "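Active when normalised viability falls below 80 percent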", "meaning of the calls": "active = viability under 80%; inactive = viability 80% or more", "note": "The deposit covers about 2,100 reagents; this is an unselected part. 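Calls flag viability under 80% in either arm, not effects specific to rucaparib; the reference for percent is not stated.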 Not stated in the record: the 100% reference."}
{"gene":"SCAF11","rucaparib or vehicle":"Rucaparib","cell line":"OCI-C5x (clear cell)","technical replicate":"1","viability, normalised (%)":47.6,"Outcome":"active"}
{"gene":"SCAF11","rucaparib or vehicle":"Rucaparib","cell line":"OCI-C5x (clear cell)","technical replicate":"2","viability, normalised (%)":52,"Outcome":"active"}
{"gene":"SCAF11","rucaparib or vehicle":"Rucaparib","cell line":"OCI-C5x (clear cell)","technical replicate":"3","viability, normalised (%)":42.1,"Outcome":"active"}
{"gene":"SCAF11","rucaparib or vehicle":"Rucaparib","cell line":"OCI-P5x (serous)","technical replicate":"1","viability, normalised (%)":49,"Outcome":"active"}
{"gene":"SCAF11","rucaparib or vehicle":"Rucaparib","cell line":"OCI-P5x (serous)","technical replicate":"2","viability, normalised (%)":46.3,"Outcome":"active"}
{"gene":"SCAF11","rucaparib or vehicle":"Rucaparib","cell line":"OCI-P5x (serous)","technical replicate":"3","viability, normalised (%)":56.3,"Outcome":"active"}
{"gene":"SCAF11","rucaparib or vehicle":"Vehicle","cell line":"OCI-C5x (clear cell)","technical replicate":"1","viability, normalised (%)":37.1,"Outcome":"active"}
{"gene":"SCAF11","rucaparib or vehicle":"Vehicle","cell line":"OCI-C5x (clear cell)","technical replicate":"2","viability, normalised (%)":45.3,"Outcome":"active"}
{"gene":"SCAF11","rucaparib or vehicle":"Vehicle","cell line":"OCI-C5x (clear cell)","technical replicate":"3","viability, normalised (%)":45.4,"Outcome":"active"}
{"gene":"SCAF11","rucaparib or vehicle":"Vehicle","cell line":"OCI-P5x (serous)","technical replicate":"1","viability, normalised (%)":58.5,"Outcome":"active"}
{"gene":"SCAF11","rucaparib or vehicle":"Vehicle","cell line":"OCI-P5x (serous)","technical replicate":"2","viability, normalised (%)":60.5,"Outcome":"active"}
{"gene":"SCAF11","rucaparib or vehicle":"Vehicle","cell line":"OCI-P5x (serous)","technical replicate":"3","viability, normalised (%)":72.6,"Outcome":"active"}
{"gene":"STK3","rucaparib or vehicle":"Rucaparib","cell line":"OCI-C5x (clear cell)","technical replicate":"1","viability, normalised (%)":52.2,"Outcome":"active"}
{"gene":"STK3","rucaparib or vehicle":"Rucaparib","cell line":"OCI-C5x (clear cell)","technical replicate":"2","viability, normalised (%)":38.5,"Outcome":"active"}
{"gene":"STK3","rucaparib or vehicle":"Rucaparib","cell line":"OCI-C5x (clear cell)","technical replicate":"3","viability, normalised (%)":37.9,"Outcome":"active"}
{"gene":"STK3","rucaparib or vehicle":"Rucaparib","cell line":"OCI-P5x (serous)","technical replicate":"1","viability, normalised (%)":52.3,"Outcome":"active"}
{"gene":"STK3","rucaparib or vehicle":"Rucaparib","cell line":"OCI-P5x (serous)","technical replicate":"2","viability, normalised (%)":65.6,"Outcome":"active"}
{"gene":"STK3","rucaparib or vehicle":"Rucaparib","cell line":"OCI-P5x (serous)","technical replicate":"3","viability, normalised (%)":53.2,"Outcome":"active"}
{"gene":"STK3","rucaparib or vehicle":"Vehicle","cell line":"OCI-C5x (clear cell)","technical replicate":"1","viability, normalised (%)":42.1,"Outcome":"active"}
{"gene":"STK3","rucaparib or vehicle":"Vehicle","cell line":"OCI-C5x (clear cell)","technical replicate":"2","viability, normalised (%)":52.2,"Outcome":"active"}
{"gene":"STK3","rucaparib or vehicle":"Vehicle","cell line":"OCI-C5x (clear cell)","technical replicate":"3","viability, normalised (%)":52.8,"Outcome":"active"}
{"gene":"STK3","rucaparib or vehicle":"Vehicle","cell line":"OCI-P5x (serous)","technical replicate":"1","viability, normalised (%)":67.9,"Outcome":"active"}
{"gene":"STK3","rucaparib or vehicle":"Vehicle","cell line":"OCI-P5x (serous)","technical replicate":"2","viability, normalised (%)":70,"Outcome":"active"}
{"gene":"STK3","rucaparib or vehicle":"Vehicle","cell line":"OCI-P5x (serous)","technical replicate":"3","viability, normalised (%)":68,"Outcome":"active"}

4 entries already listed, sorted by “viability, normalised (%)”, highest first.
{"gene":"STK3","rucaparib or vehicle":"Vehicle","cell line":"OCI-P5x (serous)","technical replicate":"2","viability, normalised (%)":70,"Outcome":"active"}
{"gene":"STK3","rucaparib or vehicle":"Vehicle","cell line":"OCI-P5x (serous)","technical replicate":"3","viability, normalised (%)":68,"Outcome":"active"}
{"gene":"STK3","rucaparib or vehicle":"Vehicle","cell line":"OCI-P5x (serous)","technical replicate":"1","viability, normalised (%)":67.9,"Outcome":"active"}
{"gene":"STK3","rucaparib or vehicle":"Vehicle","cell line":"OCI-C5x (clear cell)","technical replicate":"3","viability, normalised (%)":52.8,"Outcome":"active"}
